The values below come from PubChem BioAssay AID2685 (National Center for Advancing Translational Sciences (NCATS), 2010).

This is one part of the list. Shown are side measurements of this screen, not its main read-out; they come without a call. Most of these compounds were active or inconclusive in the main read-out, so they are no random draw. The note in brackets gives the kind of curve behind each potency; many fits are weak.

By AC50 is commonly meant the concentration giving half of the maximal activity seen. High values mean weaker potency, low ones greater potency.

The test can be described thus: qHTS Assay for Lipid Storage Modulators in Drosophila S3 Cells.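 For cell number change: cells counted by Cell Tracker Red CMTPX staining in the red channel.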 The note with it: BODIPY lipid droplet fluorescence, 18-24 h; for cell number change: measured here: cell count max response, cells fed with added oleic acid. In a few lines:
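Drosophila S3 cells got compounds at several concentrations plus oleic acid (400 uM solution). Laser-scanning cytometry with 488 nm excitation read lipid droplets at 500-530 nm and cells at 575-640 nm. Percent activity was relative to 20 uM Triacsin C.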
For orientation: In qHTS, concentration-response curves come from the screen itself.

Setting [1] is: measured here: lipid fluorescence (Fed channel) AC50, cells fed with added oleic acid.
Where [2] appears, read: measured here: cell number channel AC50, cells fed with added oleic acid.

Take `O=C(O)CCc1nc2ccccc2n(CCc2ccccc2)c1=O`: the cell number change was -10.4%. Further, the AC50 under setting [1] is 0.116 µM [rising, single point].
With `Cn1cc(S(=O)(=O)NC2CCCC2)c(=O)n(C)c1=O`, the cell number change was -23.3%. Further, under setting [1], the AC50 was 13 µM [falling, partial curve].
Regarding `Cc1ccc(S(=O)(=O)NCC2CCC(C(=O)NCc3cccnc3)CC2)cc1` (stereo not drawn), the cell number change was -85.4%.
Consider `Cc1cc(C)nc(N2CCCC(C(=O)NCCc3ccccc3F)C2)n1` (stereo not drawn), for which the cell number change was -19.3%. Besides, under setting [1], the half-maximal activity concentration (AC50) was 3.66 µM [rising, partial curve].
Take `Cn1c(SCC(=O)N2CCOCC2)nnc1-c1cnccn1`: the cell number change was -117%. Moreover, under setting [2], the AC50 is 25.9 µM [falling, partial curve]. For the same compound, under setting [1], the AC50 is 25.9 µM [falling, partial curve].
As for `CC(NC(=O)COc1ccccc1)C(c1ccccc1)N1CCN(C)CC1` (stereo not drawn), the cell number change was 3.25%.
Take `COc1ccccc1/C=C1\SC(=O)N(CCC(=O)N2CCCCC2CCO)C1=O` (stereo not drawn): the cell number change amounted to 3.24%.
In the case of `O=C(COc1cccnc1[N+](=O)[O-])NCCc1ccc(Cl)cc1`, the cell number change was -106%. Further, under setting [2], the half-maximal activity concentration (AC50) was 29.1 µM [falling, single point]. Further, the AC50 under setting [1] is 29.1 µM [falling, partial curve].
`O=C(CCN1C(=O)c2ccccc2C1=O)Nc1ccc(-c2cn3ccsc3n2)cc1`: the cell number change is -51.1%. Besides, the half-maximal activity concentration (AC50) under setting [2] was 16.4 µM [falling, single point]. Also, under setting [1], the AC50 was 29.1 µM [falling, single point].
With `CC(=O)Nc1ccc(OCC(=O)NC(C)c2ccc(F)cc2)cc1` (stereo not drawn), the cell number change was 7.44%.
Regarding `CC(C)CNC(=O)c1ccc(Cl)c(N)c1`, the cell number change amounted to 55.7%. Moreover, the AC50 under setting [2] was 1.84 µM [falling, partial curve]. Also, the AC50 under setting [1] was 6.51 µM [falling, single point].
As for `CCOC(=O)c1c(NC(=O)COC(=O)CC(NC(C)=O)c2ccccc2)sc(C(=O)NC)c1C` (stereo not drawn), the cell number change is -15.8%. Besides, under setting [1], the AC50 was 6.51 µM [rising, single point].
On to `Cn1nnnc1SC(C(=O)Nc1ccc(F)cc1)c1ccccc1` (stereo not drawn), for which the concentration at half-maximal activity (AC50) is 0.13 µM [rising, full curve, poor fit] under setting [2] and 6.51 µM [rising, partial curve, poor fit] under setting [1].
Consider `CCN(CC)C(=O)COc1ccc2c(c1)C(=O)CC(C)(C)O2`, for which the cell number change is 3.43%. The AC50 under setting [2] is 0.103 µM [rising, full curve, poor fit].
As to `Cc1ccccc1C(OCC(O)CN1CCCCC1CCO)c1ccccc1` (stereo not drawn), the cell number change was -21.4%. The AC50 under setting [2] is 5.17 µM [falling, single point].
As to `CC1CN(c2ccccc2)NC1=O` (stereo not drawn), the cell number change worked out at 11.3%. Also, under setting [1], the AC50 is 0.082 µM [falling, partial curve, poor fit].
As for `O=C(Nc1ccc2c(c1)OCO2)Nc1cnccn1`, the cell number change was found to be 280%. For the same compound, the AC50 under setting [1] is 0.103 µM [rising, full curve, poor fit].
Take `CC(C)N1CCC2(CC1)C(C#N)=C(N)NC(S)=C2C#N`: the cell number change is -46.3%. Moreover, the half-maximal activity concentration (AC50) under setting [2] was 18.4 µM [falling, single point].
With `O=C(C1CCCO1)N1CCN(C(=S)Nc2ccccc2Cl)CC1` (stereo not drawn), the cell number change was -33.4%. Also, the AC50 under setting [2] is 3.66 µM [falling, partial curve, poor fit]. Under setting [1], the AC50 is 0.184 µM [falling, full curve, poor fit].
As to `O=C(C1=COCCO1)N1CCN(S(=O)(=O)c2cccc(F)c2)CC1`, the cell number change was -8.16%. Also, the half-maximal activity concentration (AC50) under setting [1] was 29.1 µM [falling, single point].
Consider `Cc1ccc(S(=O)(=O)/N=C2\C=C(Nc3cccc(C(=O)O)c3)C(=O)c3ccccc32)c(C)c1`, for which the cell number change is -40.5%. Under setting [2], the AC50 was 29.1 µM [falling, single point]. Also, the AC50 under setting [1] is 29.1 µM [falling, single point].
Turning to `COc1ccc(-c2cc(-c3ccc(Br)cc3)nc3ncnn23)cc1OC`, the cell number change was -16.7%. Besides, the AC50 under setting [2] was 2.06 µM [rising, partial curve]. Further, the AC50 under setting [1] is 1.84 µM [rising, partial curve].
As for `CSc1nsc(NC(=O)OCc2ccc(Cl)cc2)n1`, the cell number change was 1.72%. Besides, the AC50 under setting [1] was 29.1 µM [falling, single point].
In the case of `Cc1ccc2cc(C)c(NCCO)nc2c1`, the cell number change was 0.857%. In addition, the AC50 under setting [2] was 0.13 µM [falling, full curve].
With `COc1ccccc1NC(=O)C1=C(C)Nc2ncnn2C1c1ccc(C)o1` (stereo not drawn), the AC50 under setting [2] is 6.51 µM [rising, partial curve] and the half-maximal activity concentration (AC50) under setting [1] was 0.517 µM [rising, full curve].
With `CCOc1ccc(C2C(C(=O)c3ccc(C)o3)=C(O)C(=O)N2Cc2cccnc2)cc1` (stereo not drawn), the AC50 under setting [1] is 6.51 µM [falling, single point].
As to `Cc1ccc(CNC(=O)C2CCCN(C(=O)N(C)C)C2)cc1` (stereo not drawn), the cell number change was -32.4%. Besides, the AC50 under setting [2] is 29.1 µM [falling, single point]. For the same compound, the half-maximal activity concentration (AC50) under setting [1] was 3.66 µM [falling, partial curve].
For the compound `C=CCN(C(=O)CNS(=O)(=O)c1ccccc1)C(C(=O)NCCOC)c1cccnc1` (stereo not drawn), the cell number change amounted to 24.2%. Moreover, the concentration at half-maximal activity (AC50) under setting [1] is 0.651 µM [falling, single point].
For `CC(C)Cn1cnc2c1c(=O)n(C)c(=O)n2C`, the cell number change amounted to 62.4%. Besides, under setting [2], the AC50 was 16.4 µM [rising, partial curve, poor fit].
Regarding `CCOc1ccccc1NC(=O)C1CCCN(S(=O)(=O)c2ccc3c(c2)C(C)(C)C(=O)N3C)C1` (stereo not drawn), the cell number change is -17.4%. Besides, the AC50 under setting [1] is 29.1 µM [falling, single point].
Turning to `CCn1c(SC(C)C(=O)O)nnc1-c1cccnc1` (stereo not drawn), the cell number change was -104%. The AC50 under setting [2] is 16.4 µM [falling, partial curve]. In addition, the AC50 under setting [1] is 0.82 µM [falling, full curve].
As to `O=C(CSc1nc2ccccc2[nH]1)c1ccco1`, the cell number change is -12.1%. Under setting [1], the AC50 is 14.6 µM [rising, single point].
Turning to `CC1(C)CC(=O)N(CC(=O)N2CCN(c3ncccn3)CC2)c2ccccc2S1(=O)=O`, the cell number change was found to be 1.59%. Further, under setting [1], the AC50 is 25.9 µM [falling, partial curve, poor fit].
With `COc1cc(C=O)c(Br)cc1OC1CCCC1`, the cell number change came to 15.6%. Also, the AC50 under setting [2] was 0.13 µM [falling, full curve]. The AC50 under setting [1] is 0.58 µM [falling, single point].
Regarding `CCOC(=O)C1CCCN(C(=S)Nc2ccc(C)cc2C)C1` (stereo not drawn), the cell number change came to 41%. For the same compound, the half-maximal activity concentration (AC50) under setting [2] is 20.6 µM [rising, single point].
`CCC(C)NS(=O)(=O)c1cccs1` (stereo not drawn): the cell number change was -44.2%. Further, under setting [2], the AC50 was 1.03 µM [falling, full curve]. Moreover, the AC50 under setting [1] is 2.31 µM [falling, full curve].
